# In publication PMC4618286:
# These are yes or no findings as the source states them, for the method shown. Binding seen in cells or lysates may run through a third protein. Some results given as binding are weak or reduced against the parent protein; the word gives no strength. Sequences can lack the tags named with a protein.
# T1: His-tagged version of CotH (CotH-His) (Bacillus subtilis) (UniProt Q45535)
# T1 sequence: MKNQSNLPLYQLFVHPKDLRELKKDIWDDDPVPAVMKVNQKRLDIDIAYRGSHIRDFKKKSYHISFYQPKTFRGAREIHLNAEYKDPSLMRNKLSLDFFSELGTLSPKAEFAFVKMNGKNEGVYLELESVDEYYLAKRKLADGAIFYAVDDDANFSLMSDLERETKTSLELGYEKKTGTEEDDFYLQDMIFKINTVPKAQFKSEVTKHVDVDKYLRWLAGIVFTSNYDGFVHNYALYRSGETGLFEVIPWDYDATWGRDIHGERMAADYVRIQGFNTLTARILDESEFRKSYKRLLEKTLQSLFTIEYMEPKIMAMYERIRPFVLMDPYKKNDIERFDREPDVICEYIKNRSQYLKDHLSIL
# B1: untagged version of CotE (protein, UniProt P14016 1-181)
# chain: MSEYREIITKAVVAKGRKFTQCTNTISPEKKPSSILGGWIINHKYDAEKIGKTVEIEGYYDINVWYSYADNTKTEVVTERVKYVDVIKLRYRDNNYLDDEHEVIAKVLQQPNCLEVTISPNGNKIVVQAEREFLAEVVGETKVVVEVNPDWEEDDEEDWEDELDEELEDINPEFLVGDPEE
# B2: CotE lacking the C-terminal 9 amino acids with the addition of two glutamic acid (EE) residues (domain or fragment, UniProt P14016 1-172)
# chain: MSEYREIITKAVVAKGRKFTQCTNTISPEKKPSSILGGWIINHKYDAEKIGKTVEIEGYYDINVWYSYADNTKTEVVTERVKYVDVIKLRYRDNNYLDDEHEVIAKVLQQPNCLEVTISPNGNKIVVQAEREFLAEVVGETKVVVEVNPDWEEDDEEDWEDELDEELEDINPEE
# B3: CotE lacking the 6 C-terminal residues with a glutamic acid (E) residue added (domain or fragment, UniProt P14016 1-175)
# chain: MSEYREIITKAVVAKGRKFTQCTNTISPEKKPSSILGGWIINHKYDAEKIGKTVEIEGYYDINVWYSYADNTKTEVVTERVKYVDVIKLRYRDNNYLDDEHEVIAKVLQQPNCLEVTISPNGNKIVVQAEREFLAEVVGETKVVVEVNPDWEEDDEEDWEDELDEELEDINPEFLE
# B4: CotE lacking 9 amino acids (untagged CotE -9) (domain or fragment, UniProt P14016 1-172)
# chain: MSEYREIITKAVVAKGRKFTQCTNTISPEKKPSSILGGWIINHKYDAEKIGKTVEIEGYYDINVWYSYADNTKTEVVTERVKYVDVIKLRYRDNNYLDDEHEVIAKVLQQPNCLEVTISPNGNKIVVQAEREFLAEVVGETKVVVEVNPDWEEDDEEDWEDELDEELEDINP
# Key:
# [1] = molecular target: T1, His-tagged version of CotH (CotH-His) (Bacillus subtilis); assay: pull-down; His tag pull-down: 300 ug extract with CotH-His bound to Ni-NTA magnetic agarose beads and washed; 300 ug E. coli extract with untagged CotE added, 1 h at room temperature; 50 mM NaH2PO4, 300 mM NaCl; washes with 40, 100 and 250 mM imidazole, elution with 500 mM and 1 M imidazole; immunoblot with anti-CotH and anti-CotE; only the target purified
# [2] = molecular target: T1, His-tagged version of CotH (CotH-His) (Bacillus subtilis); assay: pull-down; same His tag pull-down with CotH-His on Ni-NTA beads and the CotE versions lacking 6 C-terminal residues; data not shown; only the target purified
binding [1],binding [2],Binder
binds,,B1
binds,,B2
,binds,B3
no binding,,B4
